The results in this text go back to PubChem BioAssay AID2685 (National Center for Advancing Translational Sciences (NCATS), 2010).

A short description of the assay: qHTS Assay for Lipid Storage Modulators in Drosophila S3 Cells.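 For cell number change: cells counted by Cell Tracker Red CMTPX staining in the red channel.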 The following applies: BODIPY lipid droplet fluorescence, 18-24 h; for cell number change: measured here: cell count max response, cells fed with added oleic acid. The gist of the method: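 Drosophila S3 cells got compounds at several concentrations plus oleic acid (400 uM solution). Laser-scanning cytometry with 488 nm excitation read lipid droplets at 500-530 nm and cells at 575-640 nm. Percent activity was relative to 20 uM Triacsin C.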
On the technique in general: qHTS replaces the single test concentration by a dilution series.

Where [1] appears, read: measured here: cell number channel AC50, cells fed with added oleic acid.
[2] abbreviates: measured here: lipid fluorescence (Fed channel) AC50, cells fed with added oleic acid.

As usually defined, the AC50 is the midpoint of the concentration-response curve, whichever way the signal moves. Read a low AC50 as activity at low concentration.

The list shows a part of the results. Shown are side measurements of this screen, not its main read-out; they come without a call. The list favours compounds with an active or inconclusive main result. Potencies come from curve fits of mixed quality, noted in brackets.

On to `COc1ccccc1C=NC(CO)C(O)c1ccc([N+](=O)[O-])cc1` (stereo unspecified), for which the cell number change worked out at 3.6%.
As for `N#Cc1ccc(C(=O)NN2C(=O)NC3(CCCCC3)C2=O)cc1`, the cell number change amounted to 100%. Also, the AC50 under setting [1] is 18.4 µM [rising, single point].
With `COc1ccc(OCc2cc(C(=O)NCC3CCOCC3)no2)c(Cl)c1`, the cell number change was -17.4%.
Turning to `COCCOC(=O)C1=C(C)N(Cc2ccccc2)C(=O)NC1c1ccc(OC)cc1` (stereo unspecified), the cell number change was 14.2%. The AC50 under setting [2] is 2.06 µM [rising, single point].
As for `O=C(NCCc1ccc(Cl)cc1)c1nnc(Cc2ccc(Cl)cc2)o1`, the cell number change was -31.7%. Besides, the AC50 under setting [1] is 29.1 µM [falling, single point]. Moreover, the half-maximal activity concentration (AC50) under setting [2] is 29.1 µM [falling, single point].
On to `COCC(=O)N(Cc1cc2ccc(C)cc2[nH]c1=O)c1ccc(OC)cc1`, for which the cell number change amounted to 34.1%. For the same compound, under setting [1], the AC50 was 11.6 µM [rising, partial curve, poor fit].
For `CCOC(=O)c1cc(-c2ccccc2)n(CC(=O)O)c1C`, the cell number change came out at 16.8%. Besides, the concentration at half-maximal activity (AC50) under setting [2] was 0.00461 µM [rising, full curve, poor fit].
`CC(C)NC(=O)C1c2ccccc2Oc2ccccc21`: the cell number change was determined as 19.3%. Besides, the concentration at half-maximal activity (AC50) under setting [2] was 29.1 µM [rising, single point].
As to `O=C(NCc1ccco1)C(c1cccnc1)N(C(=O)Cn1nnc2ccccc21)c1ccccc1` (stereo unspecified), the cell number change is 1.15%.
For the compound `CNC(=S)Nc1cc(C(F)(F)F)ccc1Cl`, the cell number change is -1%. Besides, under setting [2], the AC50 is 0.00517 µM [rising, full curve, poor fit].
Regarding `COc1ccc2c(c1)C(c1ccc(C)o1)=NNC(c1cccnc1)=N2`, the cell number change was -7.75%.
`COc1cccc(CC(=O)OCC(=O)N(C)CC(=O)Nc2ccccc2Cl)c1`: the cell number change was 6.16%. Also, under setting [2], the AC50 is 29.1 µM [rising, single point].
`CCOc1c(S(=O)(=O)NC2CC(C)(C)NC(C)(C)C2)ccc(Cl)c1Cl`: the cell number change is -30.5%. Moreover, the AC50 under setting [1] is 20.6 µM [falling, single point]. The AC50 under setting [2] is 8.2 µM [falling, partial curve].
As to `CCOC(=O)N/N=C/c1ccc(Oc2ccccc2)cc1`, the cell number change was determined as 16.9%.
Regarding `CN(CC(=O)Nc1ccc(S(=O)(=O)N2CCCC2)cc1)Cc1ccc(Cl)cc1Cl`, the AC50 under setting [2] was 10.3 µM [falling, partial curve, poor fit].
As for `O=C(O)/C(=C\c1cccc(O)c1)c1ccc(S(=O)(=O)N2CCCC2)s1`, the cell number change was -1.38%. In addition, under setting [2], the half-maximal activity concentration (AC50) was 0.517 µM [rising, full curve].
For the compound `Cc1ccc(C(C)C)c(OCc2ccc(C(=O)N/N=C/c3ccc(O)c(O)c3)cc2)c1`, the cell number change was -25.4%. Moreover, the AC50 under setting [2] is 0.082 µM [falling, full curve, poor fit].
On to `Fc1ccc(CNC(=S)Nc2ccc(OC(F)F)cc2)cc1`, for which the AC50 under setting [1] is 3.66 µM [falling, single point].
As to `Cc1cc2cc(CNC(=O)c3ccc(S(=O)(=O)N4CCCCC4)cc3)ccc2n1C`, the cell number change was 23.5%.
Turning to `Cn1cc(S(=O)(=O)N2CCc3ccccc3C2)c(=O)n(C)c1=O`, the cell number change was -21%. The AC50 under setting [2] was 3.26 µM [falling, single point].
Take `Cc1nn(CC(=O)NCc2ccc(OC(C)C)cc2)c(=O)c2cc3occc3n12`: the AC50 under setting [2] was 1.84 µM [falling, partial curve].
As for `Cc1ccccc1-c1nc(CS(=O)CC(=O)NCc2ccccn2)c(C)o1` (stereo unspecified), the cell number change came out at 27%. The AC50 under setting [2] is 1.46 µM [falling, partial curve, poor fit].
On to `O=C(NCCCN1CCOCC1)c1c(O)c2ccccc2[nH]c1=O`, for which the cell number change is 45.6%. Further, the AC50 under setting [1] was 29.1 µM [rising, single point]. Under setting [2], the concentration at half-maximal activity (AC50) was 29.1 µM [rising, single point].
For `Cc1cc2nc(=O)c(/C=C3\C=Nc4ccccc43)c(N)n2o1`, the cell number change was found to be 63%. For the same compound, the half-maximal activity concentration (AC50) under setting [1] was 2.91 µM [rising, partial curve]. The AC50 under setting [2] is 1.03 µM [rising, full curve].
As for `O=C(Nn1cnnc1)c1cc2c(s1)CCCC2`, the cell number change is -18.6%. Also, the AC50 under setting [2] was 0.731 µM [falling, full curve].
Take `CC(C)c1c(O)c2c(n(-c3ccccc3)c1=O)CCCC2`: the cell number change came to 5.87%. In addition, the AC50 under setting [2] is 29.1 µM [rising, single point].
For `COc1ccc(Oc2c(Cl)cnn(-c3ccc(C)cc3)c2=O)cc1`, the cell number change is -69.6%. Also, the AC50 under setting [1] is 4.11 µM [falling, full curve]. The AC50 under setting [2] is 18.4 µM [falling, single point].
Turning to `Brc1ccc(-c2nnc3n2CCCCC3)cc1`, the cell number change worked out at 7.11%.
As to `COc1cccc(-n2ccnc2SCC(=O)Nc2cc(C)on2)c1`, the cell number change was found to be 3%. Also, the AC50 under setting [1] was 0.00461 µM [rising, full curve, poor fit].
`COc1cc(C2CC(=O)N(CC(=O)NCc3ccco3)c3ccccc3S2)cc(OC)c1OC` (stereo unspecified): the AC50 under setting [1] is 0.731 µM [rising, single point].
In the case of `O=C(CCC1CCCCC1)NNC(=O)NC12CC3CC(CC(C3)C1)C2`, the cell number change worked out at 14.7%.
For the compound `O=C(Oc1ccccc1Cl)c1ccc2c(=O)n3c(nc2c1)CCC3`, the cell number change was -14%. Under setting [1], the half-maximal activity concentration (AC50) is 0.13 µM [falling, full curve]. For the same compound, under setting [2], the half-maximal activity concentration (AC50) was 0.731 µM [falling, full curve, poor fit].
On to `O=C1SCC(c2ccccc2)=NN1Cc1ccccc1`, for which the cell number change is 21.2%. The AC50 under setting [2] was 23.1 µM [rising, single point].
With `COc1ccc(OCCC(=O)OCC(=O)NC(=O)NC(C)C)cc1`, the cell number change came to 15.4%. For the same compound, the AC50 under setting [2] was 0.00461 µM [falling, full curve, poor fit].
On to `CCN1CCN(c2ccc(S(=O)(=O)N3CCCC3)cn2)CC1`, for which the cell number change is -14.4%. Moreover, the half-maximal activity concentration (AC50) under setting [1] was 0.00461 µM [falling, full curve, poor fit]. Also, under setting [2], the AC50 was 4.61 µM [falling, single point].
For the compound `CCCSc1nc(-n2ncc(C#N)c2N)c2c3c(sc2n1)CCC(C)C3` (stereo unspecified), the concentration at half-maximal activity (AC50) is, setting by setting: under setting [1], 1.64 µM [rising, partial curve, poor fit]; under setting [2], 6.51 µM [rising, single point].
In the case of `CC(C)(C)NC(=O)NC(=O)CSc1ncc(C(F)(F)F)cc1Cl`, the cell number change is -4.65%. For the same compound, under setting [1], the AC50 is 0.411 µM [falling, full curve, poor fit].
On to `COc1ccc(C(=O)N(CCCO)Cc2cc3c(C)ccc(C)c3[nH]c2=O)cc1OC`, for which the cell number change came out at 100%.
Regarding `CCOC(=O)Nc1nnc(Cc2ccc(Cl)c(Cl)c2)s1`, the cell number change was determined as 81.8%. Also, the AC50 under setting [1] was 20.6 µM [rising, partial curve]. The AC50 under setting [2] was 13 µM [rising, partial curve].
Consider `CCCn1c(SC(C)C(=O)NC2CCCC2)n[nH]c1=O` (stereo unspecified), for which the cell number change was -0.549%. Further, the AC50 under setting [2] is 1.46 µM [falling, partial curve].
`COc1ccc2c(c1)CCN=C2Cc1ccc(OC)c(OC)c1`: the cell number change is -52.5%. Further, under setting [1], the AC50 is 0.00461 µM [falling, full curve, poor fit]. Further, under setting [2], the AC50 was 16.4 µM [falling, single point].
On to `Cc1ccc(C)c(N2CCN(C(=O)CCNS(=O)(=O)c3ccc4c(c3)oc(=O)n4C)CC2)c1`, for which the AC50 under setting [2] was 4.11 µM [rising, partial curve].
Consider `CC(C)N1C(=O)C2C(C(=O)NC3CCCCC3)C3C=CC2(O3)C1C(=O)NC1CCCCC1` (stereo unspecified), for which the cell number change was -9.84%. In addition, under setting [1], the AC50 is 5.8 µM [falling, single point]. Moreover, the AC50 under setting [2] was 0.146 µM [falling, full curve].
With `COc1cc(CN2CCN(C(=O)CC(C)C)CC2)cc(OC)c1OC`, the cell number change was -1.6%. Besides, the AC50 under setting [2] was 3.26 µM [falling, single point].
As for `CCn1cc(C(=O)NCc2ccco2)c(=O)c2cc(S(=O)(=O)N3CCCCCC3)ccc21`, the cell number change turned out to be 7.66%. Moreover, under setting [1], the concentration at half-maximal activity (AC50) is 0.82 µM [falling, full curve, poor fit].
Consider `O=C(O)c1cc(N/N=C/c2ccc3c(c2)OCCO3)ccc1Cl`, for which the cell number change is -16.7%.
With `Nc1cc(Cl)ccc1N1C(=O)CCC1=O`, the cell number change was -18.9%. The AC50 under setting [2] was 0.651 µM [rising, partial curve, poor fit].
For `O=C(/C=C/c1cccc([N+](=O)[O-])c1)NCCN1C(=O)S/C(=C\c2cccnc2)C1=O`, the cell number change was -30.1%.
On the same count and under the same terms, as for `COc1ccc2nc(SCC(=O)NCC3CCCO3)c(C#N)cc2c1` (stereo unspecified), the figure is 19.8%.
Turning to `O=C(Nc1nnc(-c2ccco2)o1)c1ccc(Cl)cc1`, the cell number change is -10.6%. Besides, the AC50 under setting [1] was 0.0651 µM [falling, full curve, poor fit]. Besides, the AC50 under setting [2] was 0.291 µM [falling, partial curve, poor fit].
With `CN1CCN(NC(=O)c2cn(-c3ccccc3)nc2-c2ccc(OC(F)F)cc2)CC1`, the cell number change was -16.5%. Moreover, the concentration at half-maximal activity (AC50) under setting [2] was 0.92 µM [falling, full curve].
Take `O=C(N/N=C1/CCS(=O)(=O)c2ccc(F)cc21)c1ccccn1`: the cell number change was -24.6%. The AC50 under setting [1] is 6.51 µM [falling, single point]. For the same compound, under setting [2], the half-maximal activity concentration (AC50) is 6.51 µM [falling, partial curve, poor fit].
As to `O=C(CSc1nc2ccccc2[nH]1)N1c2ccccc2Sc2ccccc21`, the AC50 under setting [2] is 9.2 µM [falling, partial curve].
As to `Cc1ccc(NCC(=O)N/N=C\c2ccc[nH]2)cc1`, the cell number change came to 1.87%. In addition, the AC50 under setting [2] is 0.0058 µM [falling, full curve, poor fit].
Consider `COc1ccc(C(CNC(=O)COc2ccccc2OC)N(C)C)cc1OC` (stereo unspecified), for which the cell number change worked out at 8.62%.
Turning to `CC1CCN(Cc2nnnn2-c2cccc([N+](=O)[O-])c2)CC1`, the cell number change came out at 2.25%. Moreover, under setting [2], the AC50 was 13 µM [falling, single point].
Regarding `NC(=O)COC(=O)CC12CC3CC(CC(C3)C1)C2`, the cell number change is -53.4%. The AC50 under setting [1] was 0.82 µM [falling, full curve, poor fit].
Consider `CC(=O)N1CCSc2ccc(S(=O)(=O)NCCc3cccc(C)c3)cc21`, for which the cell number change turned out to be 2.55%.
The same measure, in the same setting: the result for `Cc1cc(C)c2[nH]c(C(=O)N3CCC(n4nccc4NC(=O)C4CC4)CC3)c(C)c2c1` reads 24.9%.
Consider `O=C(Nc1ccccc1C(=O)N1CCCC1)c1cccc(S(=O)(=O)N2CCCCCC2)c1`, for which the cell number change came out at 2.16%. Moreover, under setting [2], the concentration at half-maximal activity (AC50) was 8.2 µM [rising, partial curve].
For the compound `Cc1[nH][nH]c(=O)c1C(c1ccccc1[N+](=O)[O-])C(C#N)C#N` (stereo unspecified), the cell number change is -5.66%. Besides, under setting [2], the AC50 is 2.59 µM [falling, partial curve].
For `Cc1cc(=O)oc2cc(OC(C)C(=O)NC3(C#N)CCCCC3)ccc12` (stereo unspecified), the cell number change was -38.7%. In addition, under setting [1], the AC50 is 18.4 µM [falling, single point]. Further, under setting [2], the AC50 was 20.6 µM [falling, single point].
